Measurements reported in PMC10460728 (Journal of Pharmacokinetics and Pharmacodynamics, 2023).

Assay: Caco-2 passive permeability
Format: in vitro ADME
Conditions: human, internal data, calibration reference, read-out: Reference Papp Caco-2 passive permeability of propranolol

## CC(C)NCC(O)COc1cccc2ccccc12 (stereo not shown) [propranolol]
  Papp: 14.8 ×10⁻⁶ cm/s
